Measurements: the supplement of paper PMC9744312
“And” between values parts separate entries of the source, which are not always exact repeats. Equal entries are not always repeated. Structures can show the parent of a compound that is named as a salt. The list shows a part of the results. The data scatter; read single values as rough.

These compounds were tested on Peyronie's disease tunica albuginea primary fibroblasts (assay: cell viability (DRAQ5 nuclear stain) relative to TGF-beta1-only control; higher = more viable cells). Details: 10 µM; TGF-beta1 10 ng/mL; 72 h.

Structure (SMILES) | cell viability
CC(=O)Nc1cccc(-n2c(=O)n(C3CC3)c(=O)c3c(Nc4ccc(I)cc4F)n(C)c(=O)c(C)c32)c1 | 59.3%
CN1CCC(=C2c3ccccc3C=Cc3ccccc32)CC1 [Cyproheptadine hydrochloride] | 73%
CN1CCC(=C2c3ccccc3C=Cc3ccccc32)CC1 [Cyproheptadine HCl] | 75.9%
CC(C)Oc1ccc(-c2nc(-c3cccc4c3CC[C@@H]4NCCO)no2)cc1C#N [Ozanimod (RPC1063)] | 88.2%
N=C(N)NC(=N)NCCc1ccccc1 [Phenformin HCl] | 91.4%
CO[C@H]1/C=C/O[C@@]2(C)Oc3c(C)c(O)c4c(O)c(c(/C=N/N5CCN(C6CCCC6)CC5)c(O)c4c3C2=O)NC(=O)/C(C)=C\C=C\[C@H](C)[C@H](O)[C@@H](C)[C@@H](O)[C@@H](C)[C@H](OC(C)=O)[C@@H]1C [Rifapentine] | 79.9%
C[C@H]1O[C@H](O[C@H]2[C@H](O)[C@@H](O)[C@@H](O[C@H]3[C@H](O)[C@@H](O)C(O)O[C@@H]3CO)O[C@@H]2CO)[C@H](O)[C@@H](O)[C@@H]1N[C@H]1C=C(CO)[C@@H](O)[C@H](O)[C@H]1O (stereo partly specified) [Acarbose] | 98.9%
CNC1CCCN(c2c(F)cc3c(=O)c(C(=O)O)cn(C4CC4)c3c2OC)C1 (stereo unspecified) [Balofloxacin] | 92.7%
CC[C@H]1[C@@H](O)[C@@H]2[C@H](CC[C@]3(C)[C@@H]([C@H](C)CCC(=O)O)CC[C@@H]23)[C@@]2(C)CC[C@@H](O)C[C@@H]12 [Obeticholic Acid] | 95.8%
C=C1CC[C@H](O)C/C1=C/C=C1\CCC[C@]2(C)[C@@H]([C@H](C)CCCC(C)C)CC[C@@H]12 [cholecalciferol (Vitamin D3)] | 73.2%
CCCc1cc(C(N)=S)ccn1 [Protionamide] | 93.9%
C#Cc1cccc(Nc2ncnc3cc(OC)c(OCCCCCCC(=O)NO)cc23)c1 | 40.1%
CC(=O)S[C@@H]1CC2=CC(=O)CC[C@]2(C)[C@H]2CC[C@@]3(C)[C@@H](CC[C@@]34CCC(=O)O4)[C@H]12 [Spironolactone] | 86.3%
CCOC(=O)[C@H](CCc1ccccc1)N[C@H]1CS[C@H](c2cccs2)CN(CC(=O)O)C1=O [Temocapril HCl] | 93.2%
O=C1OCCN1/N=C/c1ccc([N+](=O)[O-])o1 [Furazolidone] | 91.1%
CCCCC(F)(F)[C@@]1(O)CC[C@H]2[C@@H](CC(=O)[C@@H]2CCCCCCC(=O)O)O1 [Lubiprostone] | 95.4%
CN(C)N(C)C(=O)[C@@]1(Cc2ccccc2)CCCN(C(=O)[C@@H](Cc2c[nH]c3ccccc23)NC(=O)C(C)(C)N)C1 [Anamorelin] | 79.9%
O=S(=O)(O)c1cc(O)ccc1O [Ethamsylate] | 103%
Cc1c(O)c(=O)ccn1C [Deferiprone] | 102%
CCC(=O)O[C@]1(C(=O)CCl)[C@@H](C)C[C@H]2[C@@H]3CCC4=CC(=O)C=C[C@]4(C)[C@@]3(F)[C@@H](O)C[C@@]21C [Clobetasol propionate] | 71.6%
c1ccc([C@H]2CN3CCSC3=N2)cc1 [Levamisole hydrochloride] | 90.5%
COc1ccc(C2CNC(=O)C2)cc1OC1CCCC1 (stereo unspecified) [Rolipram] | 106%
CCCNCC(O)COc1ccccc1C(=O)CCc1ccccc1 (stereo unspecified) [Propafenone HCl] | 81.5%
COc1cc([C@@H]2c3cc4c(cc3[C@@H](O[C@@H]3O[C@@H]5CO[C@@H](C)O[C@H]5[C@H](O)[C@H]3O)[C@H]3COC(=O)[C@H]23)OCO4)cc(OC)c1O [Etoposide] | 79.2%

Structure (SMILES) | cell viability
CNS(=O)(=O)C[C@H]1CC[C@H](N(C)c2[nH]cnc3nccc2-3)CC1 | 85.5%
COc1ccccc1OCC(O)CN1CCN(CC(=O)Nc2c(C)cccc2C)CC1 (stereo unspecified) [Ranolazine] | 92.7%
COc1ccccc1OCC(O)CN1CCN(CC(=O)Nc2c(C)cccc2C)CC1 (stereo unspecified) [Ranolazine 2HCl] | 96.1%
C[C@H]1C[C@@H]2[C@H]([C@@H](O)C[C@@]3(C)[C@H]2CC[C@]3(O)C(=O)CO)[C@@]2(C)C=CC(=O)C=C12 [Methylprednisolone] | 82.5%
COc1cc2c(Oc3ccc4[nH]c(C)cc4c3F)ncnc2cc1OCCCN1CCCC1 [Cediranib (AZD2171)] | 42.9%
C[C@H]1CNCCCN1S(=O)(=O)c1cccc2cncc(F)c12 [Ripasudil (K-115) hydrochloride dihydrate] | 53.9%
O=C(O)c1cc(-c2ccccc2)nc2ccccc12 [Cinchophen] | 23.9%
CC(=O)O[C@]1(C(C)=O)CC[C@H]2[C@@H]3C[C@H](C)C4=CC(=O)CC[C@]4(C)[C@H]3CC[C@@]21C [Medroxyprogesterone acetate] | 88.6%
CCn1c(=O)c(-c2cc[nH]n2)cc2c(C)nc(N)nc21 | 69.4%
CN(C)c1nc(N(C)C)nc(N(C)C)n1 [Altretamine] | 52.2%
C[C@@H]1CCN(C(=O)CC#N)C[C@@H]1N(C)c1ncnc2[nH]ccc12 | 89.4% and 99.9%
O=c1[nH]c(=O)n(C2CCCO2)cc1F (stereo unspecified) | 92%
COc1ccc([C@]2(C#N)CC[C@@H](C(=O)O)CC2)cc1OC1CCCC1 [Cilomilast] | 102%
COCC[n+]1c2c(n(Cc3cnccn3)c1C)C(=O)c1ccccc1C2=O [YM155 (Sepantronium Bromide)] | 13.4%
O=c1oc2ccccc2c(O)c1Cc1c(O)c2ccccc2oc1=O [Dicoumarol] | 80.4%
CC(=O)[C@]1(O)Cc2c(O)c3c(c(O)c2[C@@H](O[C@H]2C[C@H](N)[C@H](O)[C@H](C)O2)C1)C(=O)c1ccccc1C3=O [Idarubicin HCl] | 22.8%
Cc1nc(=O)c2cc(CN(C)c3ccc(C(=O)N[C@@H](CCC(=O)O)C(=O)O)s3)ccc2[nH]1 [Raltitrexed] | 64.4%
CN1CCN(CCCN2c3ccccc3Sc3ccc(Cl)cc32)CC1 [Prochlorperazine Dimaleate] | 80.4%
CN1CCN(CCCN2c3ccccc3Sc3ccc(Cl)cc32)CC1 [Prochlorperazine dimaleate salt] | 85.1%
CC(/C=C1\SC(=S)N(CC(=O)O)C1=O)=C\c1ccccc1 [Epalrestat] | 88.9%
C[C@H](CCC(=O)O)[C@H]1CC[C@H]2[C@@H]3[C@H](O)C[C@@H]4C[C@H](O)CC[C@]4(C)[C@H]3CC[C@]12C [Chenodeoxycholic Acid] | 84.8%
NNc1nncc2ccccc12 [Hydralazine HCl] | 111%
CC(=O)OCC(CCn1cnc2cnc(N)nc21)COC(C)=O [Famciclovir] | 95.3%
C1CNCCN1 [Piperazine] | 83.4%

Structure (SMILES) | cell viability
CC[C@H](C)C(=O)O[C@H]1CCC=C2C=C[C@H](C)[C@H](CC[C@@H]3C[C@@H](O)CC(=O)O3)[C@H]21 [Mevastatin] | 50.7%
Nc1cc(C(Cl)=C(Cl)Cl)c(S(N)(=O)=O)cc1S(N)(=O)=O [Clorsulon] | 80.3%
Cc1nnc(NS(=O)(=O)c2ccc(N)cc2)s1 [Sulfamethizole] | 95.4%
O=C1C2CC3CC1CC(O)(C3)C2 [Idramantone] | 94.2%
CCN1CCN(c2cc3c(cc2F)c(=O)c(C(=O)O)cn3C2CC2)CC1 [Enrofloxacin] | 100%
COc1cc(NS(C)(=O)=O)ccc1Nc1c2ccccc2nc2ccccc12 [Amsacrine hydrochloride] | 51.2%
C[C@H]1CN(C[C@H](Cc2ccccc2)C(=O)NCC(=O)O)CC[C@@]1(C)c1cccc(O)c1 [Alvimopan dihydrate] | 101%
O=C(O)CCCc1ccccc1 [Sodium Phenylbutyrate] | 97.7%
Cc1cnc(NC(=O)C2=C(O)c3ccccc3S(=O)(=O)N2C)s1 [Meloxicam] | 88.9%
CC1(C)O[C@@H]2C[C@H]3[C@@H]4CCC5=CC(=O)C=C[C@]5(C)[C@@]4(F)[C@@H](O)C[C@]3(C)[C@]2(C(=O)CO)O1 [Triamcinolone Acetonide] | 78.3%
NC(=NCCCCCCN=C(N)N=C(N)Nc1ccc(Cl)cc1)N=C(N)Nc1ccc(Cl)cc1 [Chlorhexidine?2HCl] | 70.6%
OC1(c2ccc(Cl)c(C(F)(F)F)c2)CCN(CCCC(c2ccc(F)cc2)c2ccc(F)cc2)CC1 [Penfluridol] | 66.6%
C[C@@H]1C[C@H]2[C@@H]3CCC4=CC(=O)C=C[C@]4(C)[C@@]3(F)[C@@H](O)C[C@]2(C)[C@@]1(O)C(=O)CO [Dexamethasone (DHAP)] | 84.5%
O=C(O)COC(=O)Cc1ccccc1Nc1c(Cl)cccc1Cl [Aceclofenac] | 86.1%
COc1cc2nccc(Oc3ccc(NC(=O)C4(C(=O)Nc5ccc(F)cc5)CC4)cc3)c2cc1OC [Cabozantinib malate (XL184)] | 66.1%
COc1cc2nccc(Oc3ccc(NC(=O)C4(C(=O)Nc5ccc(F)cc5)CC4)cc3)c2cc1OC | 58.3%
O=C(O)/C=C/c1ccc(Cn2ccnc2)cc1 [Ozagrel sodium] | 91%
O=C(O)/C=C/c1ccc(Cn2ccnc2)cc1 [Ozagrel HCl] | 82.9%
O=C(O)/C=C/c1ccc(Cn2ccnc2)cc1 [Ozagrel] | 92.5%
CCCc1nc(C)c2c(=O)nc(-c3cc(S(=O)(=O)N4CCN(CC)CC4)ccc3OCC)[nH]n12 [Vardenafil HCl Trihydrate] | 95.3%
COc1cc(O)c(C(=O)Nc2nc(C(=O)NCCN(C(C)C)C(C)C)cs2)cc1OC [Acotiamide hydrochloride] | 92%
COc1cc(O)c(C(=O)Nc2nc(C(=O)NCCN(C(C)C)C(C)C)cs2)cc1OC [Acotiamide] | 79.8%
CC(C)(Oc1ccc(C(=O)c2ccc(Cl)cc2)cc1)C(=O)O [Fenofibric acid] | 97%

A few values from the list.
For cell viability, O=C1C2CC3CC1CC(O)(C3)C2 [Idramantone] reads 94.2%
For cell viability, CCN1CCN(c2cc3c(cc2F)c(=O)c(C(=O)O)cn3C2CC2)CC1 [Enrofloxacin] reads 100%
For cell viability, Cc1cnc(NC(=O)C2=C(O)c3ccccc3S(=O)(=O)N2C)s1 [Meloxicam] reads 88.9%
For cell viability, CC1(C)O[C@@H]2C[C@H]3[C@@H]4CCC5=CC(=O)C=C[C@]5(C)[C@@]4(F)[C@@H](O)C[C@]3(C)[C@]2(C(=O)CO)O1 [Triamcinolone Acetonide] reads 78.3%
For cell viability, COc1cc(O)c(C(=O)Nc2nc(C(=O)NCCN(C(C)C)C(C)C)cs2)cc1OC [Acotiamide] reads 79.8%
